Literature values, collected in patent US12473247B2, “Encoded design integrated synthesis of nucleic acids, and phospholipids, and related pharmaceutical products” (priority 2023, dated 2025).
At least one compound was matched to its structure with a doubt left.

Details: ratio relative to cortisol = 1; pharmacological potency of corticosteroids

SMILES: C[C@@H]1C[C@H]2[C@@H]3CCC4=CC(=O)C=C[C@]4(C)[C@@]3(F)[C@@H](O)C[C@]2(C)[C@@]1(O)C(=O)CO [dexamethasone]
- relative activity of dexamethasone:prednisolone:cortisol: approximately 25
